Source: US7029861B1, “LPS-response gene compositions and methods” (Board of Regents, The University of Texas System, priority 1998, dated 2006)

B1: Ectodomain: membrane-anchored truncated Tlr4, residues 22–660, lacking the entire cytoplasmic domain (protein)
chain: PGSLNPCIEVVPNITYQCMDQKLSKVPDDIPSSTKNIDLSFNPLKILKSYSFSNFSELQWLDLSRCEIETIEDKAWHGLHHLSNLILTGNPIQSFSPGSFSGLTSLENLVAVETKLASLESFPIGQLITLKKLNVAHNFIHSCKLPAYFSNLTNLVHVDLSYNYIQTITVNDLQFLRENPQVNLSLDMSLNPIDFIQDQAFQGIKLHELTLRGNFNSSNIMKTCLQNLAGLHVHRLILGEFKDERNLEIFEPSIMEGLCDVTIDEFRLTYTNDFSDDIVKFHCLANVSAMSLAGVSIKYLEDVPKHFKWQSLSIIRCQLKQFPTLDLPFLKSLTLTMNKGSISFKKVALPSLSYLDLSRNALSFSGCCSYSDLGTNSLRHLDLSFNGAIIMSANFMGLEELQHLDFQHSTLKRVTEFSAFLSLEKLLYLDISYTNTKIDFDGIFLGLTSLNTLKMAGNSFKDNTLSNVFANTTNLTFLDLSKCQLEQISWGVFDTLHRLQLLNMSHNNLLFLDSSHYNQLYSLSTLDCSFNRIETSKGILQHFPKSLAFFNLTNNSVACICEHQKFLQWVKEQKQFLVNVEQMTCATPVEMNTSLVLDFNNSTCYMYKTIISVSVVSVIVVSTVAFLIYHFYFHLILIA
modifications: left off: small tags and cut ends
notes: membrane-anchored truncated Tlr4, residues 22–660, lacking the entire cytoplasmic domain
B2: Tlr4^Lps-n Cyt. Dom.: membrane-associated Tlr4 cytoplasmic domain, normal sequence, residues 630–835, with flag peptide, lacking the ectodomain (protein)
chain: TIISVSVVSVIVVSTVAFLIYHFYFHLILIAGCKKYSRGESIYDAFVIYSSQNEDWVRNELVKNLEEGVPRFHLCLHYRDFIPGVAIAANIIQEGFHKSRKVIVVVSRHFIQSRWCIFEYEIAQTWQFLSSRSGIIFIVLEKVEKSLLRQQVELYRLLSRNTYLEWEDNPLGRHIFWRRLKNALLDGKASNPEQTAEEEQETATWT
modifications: left off: small tags and cut ends
B3: Tlr4^Lps-d Cyt. Dom.: membrane-associated Tlr4 cytoplasmic domain with P712H, residues 630–835, with flag peptide, lacking the ectodomain (protein)
chain: B2 chain with P83H
modifications: left off: small tags and cut ends
notes: membrane-associated Tlr4 cytoplasmic domain with P712H, residues 630–835, with flag peptide, lacking the ectodomain
B4: Tlr4^Lps-n: flag-tagged full-length normal mouse Tlr4, residues 22–835, expressed in RAW 264.7 cells (protein)
chain: PGSLNPCIEVVPNITYQCMDQKLSKVPDDIPSSTKNIDLSFNPLKILKSYSFSNFSELQWLDLSRCEIETIEDKAWHGLHHLSNLILTGNPIQSFSPGSFSGLTSLENLVAVETKLASLESFPIGQLITLKKLNVAHNFIHSCKLPAYFSNLTNLVHVDLSYNYIQTITVNDLQFLRENPQVNLSLDMSLNPIDFIQDQAFQGIKLHELTLRGNFNSSNIMKTCLQNLAGLHVHRLILGEFKDERNLEIFEPSIMEGLCDVTIDEFRLTYTNDFSDDIVKFHCLANVSAMSLAGVSIKYLEDVPKHFKWQSLSIIRCQLKQFPTLDLPFLKSLTLTMNKGSISFKKVALPSLSYLDLSRNALSFSGCCSYSDLGTNSLRHLDLSFNGAIIMSANFMGLEELQHLDFQHSTLKRVTEFSAFLSLEKLLYLDISYTNTKIDFDGIFLGLTSLNTLKMAGNSFKDNTLSNVFANTTNLTFLDLSKCQLEQISWGVFDTLHRLQLLNMSHNNLLFLDSSHYNQLYSLSTLDCSFNRIETSKGILQHFPKSLAFFNLTNNSVACICEHQKFLQWVKEQKQFLVNVEQMTCATPVEMNTSLVLDFNNSTCYMYKTIISVSVVSVIVVSTVAFLIYHFYFHLILIAGCKKYSRGESIYDAFVIYSSQNEDWVRNELVKNLEEGVPRFHLCLHYRDFIPGVAIAANIIQEGFHKSRKVIVVVSRHFIQSRWCIFEYEIAQTWQFLSSRSGIIFIVLEKVEKSLLRQQVELYRLLSRNTYLEWEDNPLGRHIFWRRLKNALLDGKASNPEQTAEEEQETATWT
modifications: left off: small tags and cut ends
notes: flag-tagged full-length normal mouse Tlr4, residues 22–835, expressed in RAW 264.7 cells
B5: Tlr4^Lps-d: flag-tagged full-length mouse Tlr4 with P712H mutation, residues 22–835, expressed in RAW 264.7 cells (protein)
chain: B4 chain with P691H
modifications: left off: small tags and cut ends
notes: flag-tagged full-length mouse Tlr4 with P712H mutation, residues 22–835, expressed in RAW 264.7 cells

Each molecule was assayed on RAW 264.7 cells (assay: Expression level of each construct (copy number per cell) by equilibrium M2 antibody binding). Conditions: stable RAW 264.7 clones, mean over n clones, M2 binding at a fixed concentration.
Format: cell-based, murine

Molecule	Copies/cell
B1	1.4 × 10^4 Copies/cell
B2	1.2 × 10^4 Copies/cell
B3	9.9 × 10^3 Copies/cell
B4	2.1 × 10^4 Copies/cell
B5	2.0 × 10^4 Copies/cell

Residue numbers refer to the chain shown, from its start. Names may count otherwise.
